The assay in a line: qHTS Assay for Lipid Storage Modulators in Drosophila S3 Cells.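 For cell number change: cells counted by Cell Tracker Red CMTPX staining in the red channel.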 Particulars: BODIPY lipid droplet fluorescence, 18-24 h; for cell number change: measured here: cell count max response, cells fed with added oleic acid. The method in brief:
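Laser-scanning cytometry quantifies lipid droplet accumulation (500–530 nm total intensity; droplet/cell object ratio) in oleic acid-fed (400 uM added) Drosophila S3 cells treated with a concentration series. 20 uM Triacsin C defined 100% inhibition.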
For orientation: qHTS replaces the single test concentration by a dilution series.

The mark [1] stands for this setting: measured here: cell number channel AC50, cells fed with added oleic acid.
Setting [2] is: measured here: lipid fluorescence (Fed channel) AC50, cells fed with added oleic acid.

The record followed here is PubChem BioAssay AID2685 (National Center for Advancing Translational Sciences (NCATS), 2010).

This is one part of the list. The main result of the screen is listed elsewhere. These columns were measured beside it and carry no call. Compounds called inactive in the main read-out are mostly missing here. The note in brackets gives the kind of curve behind each potency; many fits are weak.

A word on the AC50: it is the midpoint of the concentration-response curve, whichever way the signal moves. The low end stands for greater potency, the high end for weaker potency. Regarding `Cc1c(C(=O)Nc2ccccn2)sc2nc3n(c(=O)c12)CCC3`, the cell number change is -44.5%. Moreover, under setting [1], the AC50 was 2.06 µM [falling, full curve, poor fit]. In addition, under setting [2], the AC50 was 2.91 µM [falling, full curve].
On to `CC(C)NC(=O)CC(=O)NN=C1CCCCC1`, for which the cell number change worked out at 10.8%. Moreover, under setting [2], the AC50 is 0.13 µM [rising, full curve, poor fit].
Consider `COc1cc(CN2CCCC(CCC(=O)NCc3ccc(C)o3)C2)cc2c1OCO2` (stereo unspecified), for which the cell number change is -1.86%. Moreover, under setting [2], the AC50 was 3.26 µM [rising, single point].
As for `O=S(=O)(Nc1cccc(S(=O)(=O)N2CCCC2)c1)c1ccc(Cl)s1`, the cell number change came out at 23.8%.
As for `CC(=O)c1ccccc1NC(=O)COC(=O)CN1C(=O)C2CCCCC2C1=O` (stereo unspecified), the cell number change is -11.8%. The AC50 under setting [2] was 3.66 µM [rising, partial curve].
Consider `O=C(Nc1ccnn1C1CCN(C/C=C/c2ccccc2)CC1)c1ccccc1`, for which the cell number change came to 5.45%. Besides, under setting [1], the AC50 is 3.66 µM [rising, single point]. In addition, the half-maximal activity concentration (AC50) under setting [2] is 6.51 µM [falling, single point].
Consider `CCOC(=O)N1CCN(C(=O)C(C)SCc2ccccc2)CC1` (stereo unspecified), for which the cell number change was 2.59%.
In the case of `CCCCSc1nc2c(cnn2-c2ccc(C)c(C)c2)c(=O)[nH]1`, the cell number change was 6.94%. In addition, the AC50 under setting [2] is 1.84 µM [falling, full curve, poor fit].
With `CC(C)n1c(NCc2ccc(Cl)cc2)nc2ccccc21`, the AC50 under setting [2] is 29.1 µM [rising, single point].
For the compound `O=S(=O)(Nc1ccc2c(c1)OCCO2)c1ccc2oc3ccccc3c2c1`, the cell number change was 8.63%. Also, the AC50 under setting [2] is 1.84 µM [rising, partial curve].
Take `COc1ccc2cc3cc(C(=O)N4CCCCCC4)oc3nc2c1`: the cell number change came to 6.73%.
In the case of `COc1ccccc1C(=O)NC(=S)NC12CC3CC(CC(C3)C1)C2`, the cell number change amounted to 35.7%. Besides, the AC50 under setting [1] is 0.259 µM [rising, full curve].
On to `O=C(C1COc2ccccc2O1)N1CCOCC1` (stereo unspecified), for which the cell number change was -22.5%. Moreover, the AC50 under setting [1] is 3.66 µM [falling, full curve, poor fit]. Further, under setting [2], the AC50 is 29.1 µM [falling, single point].
In the case of `O=C(Cc1n[nH]c(=O)c2ccccc12)NCc1ccc(Cl)cc1`, the cell number change is -49.9%. In addition, the AC50 under setting [1] is 29.1 µM [falling, single point]. In addition, the AC50 under setting [2] is 29.1 µM [falling, single point].
For `COc1ccc(C(=O)Oc2cc(OC)cc(OC)c2C(C)=O)cc1`, the cell number change came to 20.8%.
Take `O=c1[nH][nH]cc1C=Nc1cc(Cl)ccc1O`: the cell number change was -24.2%. The concentration at half-maximal activity (AC50) under setting [1] was 0.146 µM [falling, full curve, poor fit]. Under setting [2], the concentration at half-maximal activity (AC50) was 0.146 µM [falling, full curve, poor fit].
Consider `COc1cccc(Cn2nnc(C(=O)NCc3ccccc3Cl)c2N)c1`, for which the cell number change was -12.5%. Also, the AC50 under setting [1] was 0.00517 µM [falling, full curve, poor fit].
On to `CN(CC(=O)Nc1cccc(F)c1)C(=O)c1cccc(S(=O)(=O)N2CC3(C)CC2CC(C)(C)C3)c1` (stereo unspecified), for which the cell number change stood at 100%. Also, under setting [1], the half-maximal activity concentration (AC50) is 4.11 µM [rising, full curve]. The AC50 under setting [2] was 14.6 µM [falling, partial curve].
Take `CC(C)OCCCNC(=O)c1cn(C)c2ccc(S(=O)(=O)N(C)C3CCCCC3)cc2c1=O`: the cell number change is -38.4%. The AC50 under setting [1] was 9.2 µM [falling, partial curve].
For the compound `C=CCNCCCOc1ccc(C)cc1Br`, the cell number change is -50.5%. For the same compound, the AC50 under setting [1] was 29.1 µM [falling, single point].
Turning to `CCCCOc1ccc(-n2nc(C)cc2C)nn1`, the cell number change was 11.6%. The AC50 under setting [2] is 0.731 µM [rising, single point].
`CCOC(=O)C1=C(COC(=O)/C=C/c2cccc([N+](=O)[O-])c2)NC(=O)NC1C` (stereo unspecified): the cell number change was -66.3%. Under setting [1], the AC50 was 14.6 µM [falling, partial curve, poor fit].
Take `Cc1ccc(NCC(O)C(O)C(O)CO)c(N=Nc2ccccc2)c1C` (stereo unspecified): the cell number change is -10.7%. Under setting [2], the concentration at half-maximal activity (AC50) was 11.6 µM [falling, partial curve, poor fit].
As for `CC(C)CCn1nnnc1CN1CCN(c2ccccc2)CC1`, the cell number change is -1.64%. For the same compound, the AC50 under setting [1] is 0.517 µM [falling, single point].
As to `O=C(NNC(=O)c1ccc(S(=O)(=O)N2CCOCC2)cc1)c1ccccc1`, the cell number change was -11.8%.
On the same count and under the same terms, the value for `CCc1cc(C(c2ccc(F)cc2)N2CCOCC2)c(NC(=O)c2ccccc2)s1` (stereo unspecified) was -8.81%.
For `COc1ccc(CCn2c(=N)c(C(=O)N3CCN(C)CC3)cc3c(=O)n4ccccc4nc32)cc1`, the cell number change is -31.6%. In addition, the half-maximal activity concentration (AC50) under setting [1] was 29.1 µM [falling, single point]. For the same compound, the half-maximal activity concentration (AC50) under setting [2] was 0.411 µM [rising, full curve].
`Cc1ccc(CNC(=O)CCCN2C(=S)NC(C)(C)CC2C)cc1` (stereo unspecified): the cell number change is 4.94%.
Turning to `Cc1ccc(C)c(NC(=O)COC(=O)CCC(=O)c2cccs2)c1`, the cell number change was -43.8%. For the same compound, the concentration at half-maximal activity (AC50) under setting [2] was 2.06 µM [rising, partial curve].
As for `CS(=O)(=O)N(CC(=O)O)c1ccc(C23CC4CC(CC(C4)C2)C3)cc1`, the cell number change was -0.365%.
For `O=C(Nc1ccc(N2CCCC2)cc1)C(c1ccccc1)c1ccccc1`, the cell number change amounted to 4.17%. The half-maximal activity concentration (AC50) under setting [1] is 2.06 µM [falling, partial curve]. Further, the AC50 under setting [2] was 1.64 µM [falling, partial curve].
